These are yes or no findings as the source states them, for the method shown. In cells and extracts the contact can be indirect. Binding calls can cover weak binding; strength is not graded here. Tags and fused reporters may be left off the sequences shown.
Molecular target: T1, FLAG-tagged full-length Corto (D. melanogaster) (UniProt P41046)
T1 sequence: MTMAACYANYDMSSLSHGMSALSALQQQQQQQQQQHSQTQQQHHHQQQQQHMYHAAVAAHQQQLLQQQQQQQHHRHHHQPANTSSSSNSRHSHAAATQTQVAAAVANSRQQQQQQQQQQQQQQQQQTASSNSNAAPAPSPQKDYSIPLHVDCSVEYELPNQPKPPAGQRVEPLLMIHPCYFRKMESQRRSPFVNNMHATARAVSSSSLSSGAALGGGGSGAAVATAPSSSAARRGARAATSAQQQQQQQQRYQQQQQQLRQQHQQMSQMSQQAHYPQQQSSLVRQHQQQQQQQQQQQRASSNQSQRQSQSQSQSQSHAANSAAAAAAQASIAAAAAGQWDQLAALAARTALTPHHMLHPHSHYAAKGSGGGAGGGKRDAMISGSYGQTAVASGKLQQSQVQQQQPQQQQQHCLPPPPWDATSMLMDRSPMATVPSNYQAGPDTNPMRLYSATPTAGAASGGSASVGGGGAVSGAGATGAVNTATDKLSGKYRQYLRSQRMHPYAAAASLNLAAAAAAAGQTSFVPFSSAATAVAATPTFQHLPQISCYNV
Assay: co-IP; S2 cells co-transfected with FLAG-tagged Corto constructs and Myc-tagged ribosomal proteins; cell extracts; immunoprecipitation with anti-FLAG or anti-Myc, Western blot with the same antibodies

For “Myc-tagged RPL12 (Ribosomal Protein L12) (D. melanogaster)”, the binding was “binds”.
